Laboratory results taken from US20230116446A1.
Results are given in words; binding and its absence hold for the method and conditions named. Binding calls can cover weak binding; strength is not graded here.

What was measured:
[1] = molecular target: His6 tagged soluble monomeric extracellular domain (ECD) of hSIRPα v2 (human); test: SPR sensorgrams (Biacore), multi-cycle and single-cycle kinetics
[2] = molecular target: His6 tagged soluble monomeric extracellular domain (ECD) of hSIRPα v2 (human); test: SPR (Biacore T200); antibody captured on a CM5 chip by immobilized goat anti-human Fc polyclonal antibody; monomeric hSIRPα v2 ECD injected as analyte; multi-cycle with regeneration (panel D) and single-cycle without regeneration (panel H); axes are time (s) and RU according to the legend

B1: parental anti-hSIRPα #24 IgG antibody (antibody, V domains shown)
VH: EVQLVESGGGLVKPGGSLRLSCAASGFTFSSYVMSWVRQTPGKGLEWVATISSGGTYTYYPDSVKGRFTLSRDNAKNSLYLQMNSLRAEDTAVYYCASQLTGSEFDYWGQGTTVTVSS
VL: DIVLTQSPASLAVSLGERATISCRASESVDLYGTSFMHWYQQKPGQPPKLLIYRASNLESGVPDRFSGSGSRTDFTLTINPLQAEDVATYYCHQSSDELPWTFGGGTKVEIKR
binding [1]: binds | binding [2]: binds
